Measurements from ChEMBL document CHEMBL4699547, “Design, synthesis, and multitargeted profiling of N-benzylpyrrolidine derivatives for the treatment of Alzheimer's disease” (Bioorg Med Chem, 2020).

Assay: Permeability of the compound at 25 ug/ml after 18 hrs by PAMPA-BBB assay

Compound: COc1cc2c(cc1OC)C(=O)C(CC1CCN(Cc3ccccc3)CC1)C2 (stereo unspecified) [DONEPEZIL]
- Papp at 18 h, 25 ug/ml: 7.2 ×10⁻⁶ cm/s
